PubChem BioAssay AID1259254 | NCATS | 2017

- Aim: 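Finding genes that stop cells copying their DNA twice in one cycle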 (primary screen)
- Cells: human HCT116 colorectal cancer cells
- Reagents: single siRNA against human genes
- Timing: 3 days
- Read-out: 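Imaged Hoechst DNA stain sorts each cell into a cycle phase by DNA amount; per plate, G2 fraction set to 0% for non-targeting and 100% for GMNN siRNA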
- Scale: G2 robust z-score and G2 cells, % of GMNN control: higher = more G2 cells, more excess DNA replication
- Hit rule: 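An siRNA counts as active if its G2 robust z-score lies at least 5 MADs above the screen median; here such calls match roughly 38% of GMNN control or more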
The whole screen tested about 59,000 reagents; shown is a part drawn at random. About 1,550 of all reagents (2.6%) count as active. 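G2 share is only a proxy for re-replication; each gene was hit by three separate siRNAs, and active genes were retested.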 The numbers tell different reagents against one gene apart. Not all columns of the deposit are shown. The record does not give: the amount of reagent.

PCBP4 #1 showed G2 robust z-score -0.631; G2 cells, % of GMNN control -1.48; inactive. PCBP4 #2 gave G2 robust z-score 0.342; G2 cells, % of GMNN control 5.37; inactive. Depletion of PCBP4 #3 came out at: G2 robust z-score 0.33; G2 cells, % of GMNN control 5.29; inactive. For PLA2G4D #1 the deposit lists G2 robust z-score 0.493; G2 cells, % of GMNN control 6.43; inactive. PLA2G4D #2 showed G2 robust z-score 0.567; G2 cells, % of GMNN control 6.96; inactive. Knock-down of PLA2G4D #3 resulted in: G2 robust z-score 2.38; G2 cells, % of GMNN control 19.7; inactive.

LOC644173 (retired record) #1 showed G2 robust z-score -0.093; G2 cells, % of GMNN control 2.31; inactive. Silencing of LOC644173 (retired record) #2 came out at: G2 robust z-score -0.289; G2 cells, % of GMNN control 0.935; inactive. With knock-down of LOC644173 (retired record) #3, the screen gave G2 robust z-score 1.06; G2 cells, % of GMNN control 10.4; inactive. For CST8 #1 the deposit lists G2 robust z-score 1.11; G2 cells, % of GMNN control 10.8; inactive. Knock-down of CST8 #2 gave: G2 robust z-score -0.921; G2 cells, % of GMNN control -3.51; inactive. CST8 #3 gave G2 robust z-score 0.378; G2 cells, % of GMNN control 5.62; inactive.

After knock-down of PGLS #1 the results were G2 robust z-score 0.469; G2 cells, % of GMNN control 6.27; inactive. After knock-down of PGLS #2, the screen gave G2 robust z-score -0.0952; G2 cells, % of GMNN control 2.3; inactive. Depletion of PGLS #3 came out at: G2 robust z-score -0.232; G2 cells, % of GMNN control 1.34; inactive. With knock-down of TMEM183BP #1 the results were G2 robust z-score 0.658; G2 cells, % of GMNN control 7.6; inactive. Against TMEM183BP #2, the values are G2 robust z-score 0.203; G2 cells, % of GMNN control 4.39; inactive. After knock-down of TMEM183BP #3, the record shows G2 robust z-score 0.125; G2 cells, % of GMNN control 3.85; inactive.

Against TPBG #1 the deposit lists G2 robust z-score 8.16; G2 cells, % of GMNN control 60.4; active. With knock-down of TPBG #2, the record shows G2 robust z-score -0.876; G2 cells, % of GMNN control -3.19; inactive. Against TPBG #3, the values are G2 robust z-score -0.703; G2 cells, % of GMNN control -1.98; inactive. ATP5PF #1 showed G2 robust z-score 2.6; G2 cells, % of GMNN control 21.3; inactive. After knock-down of ATP5PF #2 the results were G2 robust z-score -0.48; G2 cells, % of GMNN control -0.413; inactive. Against ATP5PF #3 the deposit lists G2 robust z-score 4.58; G2 cells, % of GMNN control 35.2; inactive.

Looked up above.
PGLS #3, Call: inactive
Entry of PCBP4 #2 in “G2 cells, % of GMNN control”: 5.37
